Some entries share one result that the patent states for a list of compounds.
Target: T1, human GPR120 (Homo sapiens, UniProt Q5NUL3)
T1 construct: host or cells: HEK293 cells co-expressing Gqi5
T1 sequence (Q5NUL3 1-361): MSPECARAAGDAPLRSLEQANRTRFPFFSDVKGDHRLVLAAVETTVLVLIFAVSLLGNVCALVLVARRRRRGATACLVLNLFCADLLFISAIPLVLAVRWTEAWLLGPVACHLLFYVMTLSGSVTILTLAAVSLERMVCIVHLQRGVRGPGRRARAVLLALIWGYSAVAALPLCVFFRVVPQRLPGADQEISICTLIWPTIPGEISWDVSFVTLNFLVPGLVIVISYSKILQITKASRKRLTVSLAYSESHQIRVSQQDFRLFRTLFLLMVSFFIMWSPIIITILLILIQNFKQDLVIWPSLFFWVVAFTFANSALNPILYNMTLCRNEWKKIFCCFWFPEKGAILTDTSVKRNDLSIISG
Assay: Intracellular Ca2+ assay in human GPR120 stable cell line (FLIPR Calcium 4 dye, Flexstation)
Format: cell-based
Conditions: eight concentrations from 0.00001 to 20 µM; changes (Max-Min) of fluorescence intensity
Protocol: Human GPR120 stable cell line was purchased from Multispan Inc (26219 Eden Landing Road, Hayward, CA94545). This GPR120 cell line was generated in HEK293 cells co-expressing Gqi5. In this cell line, the Flag epitope tag (DYKDDDDK) was fused to the amino terminus of human GPR120 protein.
The concentration of intracellular Ca^2+ was measured as described below. Human GPR120 cells were plated in 96 well plates (Poly-D-Lysine coated black/clear Plate, Greiner Bio-One) at 70,000 cells per well and cultured overnight in conditions of 37°C and 5% CO2. A Ca^2+ assay dye stock solution was prepared by adding 10 mL of assay buffer (HBSS/20mM HEPES, pH 7.4) to FLIPR Calcium 4 Assay Bulk Kit (Molecular Devices). The 10 mL of Ca^2+ assay dye solution was prepared by further diluting 0.5 mL of Ca^2+ assay dye stock solution with 10 mL of assay buffer. The medium of the cells was removed and immediately 100 µL of the Ca^2+ assay dye solution was dispensed into each well followed by incubation at 37°C and 5% CO2 for 50 minutes to incorporate the Ca^2+ dye into the cells. The cell plate was then placed in the Flexstation (Molecular Devices) for 20 minutes at 37°C. Compounds were dissolved in 100% DMSO and diluted to desired concentrations with assay buffer and placed in the Flexstation simultaneously with the cell plate for 20 minute incubation at 37°C prior to reading. Fluorescence intensity was measured immediately following compound addition (25 µL/well) on the Flexstation at an excitation wavelength of 485 nm and an emission wavelength of 525 with 515 nm auto cutoff. The resulting increase in fluorescence intensities corresponds to increases in intracellular Ca^2+ levels.
Compounds were dissolved in 100% DMSO to a concentration of 20 mM to provide stock solutions. To determine activity against human GPR120, compounds were added with human GPR120 stably expressing cells (described above), at eight desired concentrations ranging from 0.00001 to 20 µM, in 96 well plates and fluorescence intensities were measured for 90 seconds with 2-second intervals. An EC50 value (concentration of the GPR120 agonist where 50% of the agonist's maximal activity is observed) was calculated using the changes (Max-Min) of fluorescence intensity.
To determine percent activity for a tested compound, the fluorescence intensity value obtained at a particular concentration were compared to the maximal fluorescence intensity value obtained for reference compound GW9508 (4-[[(3-phenoxyphenyl)methyl]amino]benzene propanoic acid; British Journal of Pharmacology 2006 148, 619-628) or the compound of Example 25. When GW9508 was used as the reference compound, the maximal activity of GW9508 at 6.7µM was designated as 100% activity. When the compound of Example 25 was used as the reference compound, the maximal activity of the compound of Example 25 at 2.5 µM was designated as 100% activity. Typically, the GW9508 activity reached a maximum at a concentration of approximately 6.7 µM and typically the compound of Example 25 reached a maximum activity at approximately 2.5µM. […]

SMILES	EC50 [nM]
CCOc1cc(COc2c(F)cc(CC(C)C(=O)O)cc2F)c2c(c1)CC(C)(C)O2 (stereo not drawn) [Example 110, 3-(4-((5-ethoxy-2,2-dimethyl-2,3-dihydrobenzofuran-7-yl)methoxy)-3,5-difluorophenyl)-2-methylpropanoic acid]	≤ 1000
Cc1cc(OCC(=O)O)ccc1OCc1cc(Cl)cc2c1OC(C)(C)C2 [Example 103, 2-(4-((5-chloro-2,2-dimethyl-2,3-dihydrobenzofuran-7-yl)methoxy)-3-methylphenoxy)acetic acid]	≤ 1000
CC(C)c1cc(OCc2cc(F)cc3c2OC(C)(C)C3)ccc1CCC(=O)O [Example 135, 3-(4-((5-fluoro-2,2-dimethyl-2,3-dihydrobenzofuran-7-yl)methoxy)-2-isopropylphenyl) propanoic acid]	≤ 1000
COc1cc(COc2ccc(CC(C)C(=O)O)cc2)c2c(c1)CC(C)(C)O2 (stereo not drawn) [Example 108, 3-(4-((5-methoxy-2,2-dimethyl-2,3-dihydrobenzofuran-7-yl)methoxy)phenyl)-2-methylpropanoic acid]	≤ 1000
CC1(C)Cc2cc(Cl)cc(COc3cc4c(cc3F)C(CC(=O)O)CC4)c2O1 (stereo not drawn) [Example 1, 2-(5-((5-chloro-2,2-dimethyl-2,3-dihydrobenzofuran-7-yl)methoxy)-6-fluoro-2,3-dihydro-1H-inden-1-yl)acetic acid]	≤ 1000
Cc1cc(CC(C)C(=O)O)ccc1OCc1cc(Cl)cc2c1OC(C)(C)C2 (stereo not drawn) [Example 11, 3-(4-((5-chloro-2,2-dimethyl-2,3-dihydrobenzofuran-7-yl)methoxy)-3-methylphenyl)-2-methylpropanoic acid]	≤ 1000
CC1(C)Cc2c(ccc(F)c2COc2c(F)cc(C3CC3C(=O)O)cc2F)O1 (stereo not drawn) [Example 99, 2-(3,5-difluoro-4-((5-fluoro-2,2-dimethyl-2,3-dihydrobenzofuran-4-yl)methoxy)phenyl)cyclopropanecarboxylic acid]	≤ 1000
CC(Cc1cc(F)c(OCc2cccc3c2OC(C)(C)CC3)c(F)c1)C(=O)O (stereo not drawn) [Example 2, 3-(4-((2,2-dimethylchroman-8-yl)methoxy)-3,5-difluorophenyl)-2-methylpropanoic acid]	≤ 1000
CC(Cc1ccc(OCc2cc(F)cc3c2OC(C)(C)C3)cc1)C(=O)O (stereo not drawn) [Example 16, 3-(4-((5-fluoro-2,2-dimethyl-2,3-dihydrobenzofuran-7-yl)methoxy)phenyl)-2-methylpropanoic acid]	≤ 1000
CC1(C)Cc2cc(F)cc(COc3c(F)cc(C4CC4C(=O)O)cc3F)c2O1 (stereo not drawn) [Example 19, 2-(3,5-difluoro-4-((5-fluoro-2,2-dimethyl-2,3-dihydrobenzofuran-7-yl)methoxy)phenyl)cyclopropanecarboxylic acid]	≤ 1000
C[C@@H](Cc1ccc(OCc2cc(Cl)cc3c2OC(C)(C)C3)c(F)c1)C(=O)O [Example 142, (S)-3-(4-((5-chloro-2,2-dimethyl-2,3-dihydrobenzofuran-7-yl)methoxy)-3-fluorophenyl)-2-methylpropanoic acid]	≤ 1000
CCc1c(CCC(=O)O)ccc(OCc2cc(Cl)cc3c2OC(C)(C)C3=O)c1F [Example 75, 3-(4-((5-chloro-2,2-dimethyl-3-oxo-2,3-dihydrobenzofuran-7-yl)methoxy)-2-ethyl-3-fluorophenyl)propanoic acid]	≤ 1000
CC(Cc1ccc(OCc2cc(Cl)cc3c2OC(C)(C)C3=O)cc1)C(=O)O (stereo not drawn) [Example 129, 3-(4-((5-chloro-2,2-dimethyl-3-oxo-2,3-dihydrobenzofuran-7-yl)methoxy)phenyl)-2-methylpropanoic acid]	≤ 1000

Now from value to compound:

EC50 [nM]	SMILES
≤ 1000	Cc1c(CCC(=O)O)ccc(OCc2cc(F)cc3c2OC(C)(C)C3)c1C [Example 208, 3-(4-((5-fluoro-2,2-dimethyl-2,3-dihydrobenzofuran-7-yl)methoxy)-2,3-dimethylphenyl)propanoic acid]
≤ 1000	CCCc1cc(OCc2cc(F)cc3c2OC(C)(C)C3)ccc1CCC(=O)O [Example 212, 3-(4-((5-fluoro-2,2-dimethyl-2,3-dihydrobenzofuran-7-yl)methoxy)-2-propylphenyl)propanoic acid]
≤ 1000	[2H]C([2H])(Oc1ccc(CCC(=O)O)c(CC)c1F)c1cc(F)cc2c1OC(C)(C)C2 [Example 228, 3-(4-(dideuterio(5-fluoro-2,2-dimethyl-2,3-dihydrobenzofuran-7-yl)methoxy)-3-fluoro-2-ethylphenyl)propanoic acid]
≤ 1000	CCCCc1c(CCC(=O)O)ccc(OCc2cc(Cl)cc3c2OC(C)(C)C3)c1F [Example 239, 3-(2-butyl-4-((5-chloro-2,2-dimethyl-2,3-dihydrobenzofuran-7-yl)methoxy)-3-fluorophenyl)propanoic acid]
≤ 1000	CC(Cc1ccc(OCc2cc(F)cc3c2OC(C)(C)C3)cc1)C(=O)NO (stereo not drawn) [Example 264, 3-(4-((5-fluoro-2,2-dimethyl-2,3-dihydrobenzofuran-7-yl)methoxy)phenyl)-N-hydroxy-2-methylpropanamide]
≤ 1000	Cc1c(CCC(=O)O)ccc(OCc2cc(Cl)cc3c2OC(C)(C)C3)c1F [Example 245, 3-(4-((5-chloro-2,2-dimethyl-2,3-dihydrobenzofuran-7-yl)methoxy)-3-fluoro-2-methylphenyl)propanoic acid]
≤ 1000	CC1(C)Cc2cc(F)cc(COc3c(F)cc(CC4CC4C(=O)O)cc3F)c2O1 (stereo not drawn) [Example 184, 2-(3,5-difluoro-4-((5-fluoro-2,2-dimethyl-2,3-dihydrobenzofuran-7-yl)methoxy)benzyl)cyclopropanecarboxylic acid]
≤ 1000	CCc1cc(CC(C)C(=O)O)ccc1OCc1cc(Cl)cc2c1OC(C)(C)C2 (stereo not drawn) [Example 249, 3-(4-((5-chloro-2,2-dimethyl-2,3-dihydrobenzofuran-7-yl)methoxy)-3-ethylphenyl)-2-methylpropanoic acid]
≤ 1000	Cc1cc(CCC(=O)O)c(C)c(C)c1OCc1cc(Cl)cc2c1OC(C)(C)C2 [Example 255, 3-(4-((5-chloro-2,2-dimethyl-2,3-dihydrobenzofuran-7-yl)methoxy)-2,3,5-trimethylphenyl)propanoic acid]
≤ 1000	CC1(C)Cc2cc(F)cc(COc3ccc4c(c3)CCCC4CC(=O)O)c2O1 (stereo not drawn) [Example 153, 2-(6-((5-fluoro-2,2-dimethyl-2,3-dihydrobenzofuran-7-yl)methoxy)-1,2,3,4-tetrahydronaphthalen-1-yl)acetic acid]
≤ 1000	CCc1cc(CC(C)C(=O)O)ccc1OCc1cc(F)cc2c1OC(C)(C)C2 (stereo not drawn) [Example 248, 3-(3-ethyl-4-((5-fluoro-2,2-dimethyl-2,3-dihydrobenzofuran-7-yl)methoxy)phenyl)-2-methylpropanoic acid]
≤ 1000	CC1(C)Cc2cc(F)cc(COc3c(F)cc(CCCC(=O)O)cc3F)c2O1 [Example 161, 4-(3,5-difluoro-4-((5-fluoro-2,2-dimethyl-2,3-dihydrobenzofuran-7-yl)methoxy)phenyl)butanoic acid]
≤ 1000	[2H]C1([2H])c2cc(Cl)cc(COc3ccc(CC(C)C(=O)O)cc3C(F)(F)F)c2OC1(C)C (stereo not drawn) [Example 147, 3-(4-((3,3-dideuterio-5-chloro-2,2-dimethyl-2,3-dihydrobenzofuran-7-yl)methoxy)-3-(trifluoromethyl)phenyl)-2-methylpropanoic acid]
≤ 1000	CC1(C)Cc2cc(Cl)cc(COc3ccc(CCC(=O)O)c4c3CCCC4)c2O1 [Example 219, 3-(4-((5-chloro-2,2-dimethyl-2,3-dihydrobenzofuran-7-yl)methoxy)-5,6,7,8-tetrahydronaphthalen-1-yl)propanoic acid]

Source: patent EP2582674B1 (Cymabay Therapeutics, Inc., priority 2010, dated 2011)
